We go through 1 molecule from PMC11180178.

The chains behind the UniProt entries cited, without tags or fusion partners. Residues count along the entry.
UniProt P30532, residues 23-468: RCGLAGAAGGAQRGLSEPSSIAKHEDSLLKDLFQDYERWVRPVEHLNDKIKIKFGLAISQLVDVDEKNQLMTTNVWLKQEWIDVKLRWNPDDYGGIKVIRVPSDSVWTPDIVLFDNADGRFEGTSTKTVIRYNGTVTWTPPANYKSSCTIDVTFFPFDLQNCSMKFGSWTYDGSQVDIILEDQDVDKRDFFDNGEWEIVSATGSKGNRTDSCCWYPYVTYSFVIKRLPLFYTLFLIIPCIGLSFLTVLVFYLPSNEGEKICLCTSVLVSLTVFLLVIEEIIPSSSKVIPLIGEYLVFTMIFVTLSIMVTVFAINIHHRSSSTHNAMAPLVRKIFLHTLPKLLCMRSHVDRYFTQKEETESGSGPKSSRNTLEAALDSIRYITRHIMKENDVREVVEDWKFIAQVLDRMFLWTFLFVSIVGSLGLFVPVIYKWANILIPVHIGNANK

Results are given in words; binding and its absence hold for the method and conditions named. Binding seen in cells or lysates may run through a third protein. These calls come from enrichment with a bait or labelling near it, and not all partners need be listed.

The experiment deals with cholinergic receptor nicotinic alpha 5 subunit (CHRNA5) (human (endogenous in AMC-HN8 and FD-LSC-1)) (UniProt P30532). The experiment in a line: affinity purification with mass spectrometry; IP with anti-CHRNA5 antibodies and protein A/G beads overnight from AMC-HN8 lysate; IgG as control; eluted proteins digested and analysed by MS.

B1: RABL6 (protein, UniProt Q3YEC7 1-729)
chain: MFSALKKLVGSDQAPGRDKNIPAGLQSMNQALQRRFAKGVQYNMKIVIRGDRNTGKTALWHRLQGRPFVEEYIPTQEIQVTSIHWSYKTTDDIVKVEVWDVVDKGKCKKRGDGLKMENDPQEAESEMALDAEFLDVYKNCNGVVMMFDITKQWTFNYILRELPKVPTHVPVCVLGNYRDMGEHRVILPDDVRDFIDNLDRPPGSSYFRYAESSMKNSFGLKYLHKFFNIPFLQLQRETLLRQLETNQLDMDATLEELSVQQETEDQNYGIFLEMMEARSRGHASPLAANGQSPSPGSQSPVVPAGAVSTGSSSPGTPQPAPQLPLNAAPPSSVPPVPPSEALPPPACPSAPAPRRSIISRLFGTSPATEAAPPPPEPVPAAEGPATVQSVEDFVPDDRLDRSFLEDTTPARDEKKVGAKAAQQDSDSDGEALGGNPMVAGFQDDVDLEDQPRGSPPLPAGPVPSQDITLSSEEEAEVAAPTKGPAPAPQQCSEPETKWSSIPASKPRRGTAPTRTAAPPWPGGVSVRTGPEKRSSTRPPAEMEPGKGEQASSSESDPEGPIAAQMLSFVMDDPDFESEGSDTQRRADDFPVRDDPSDVTDEDEGPAEPPPPPKLPLPAFRLKNDSDLFGLGLEEAGPKESSEEGKEGKTPSKEKKKKKKKGKEEEEKAAKKKSKHKKSKDKEEGKEERRRRQQRPPRSRERTAADELEAFLGGGAPGGRHPGGGDYEEL
For B1, the binding entry was “binds”.
